These are yes or no findings as the source states them, for the method shown. Binding seen in cells or lysates may run through a third protein. Some results given as binding are weak or reduced against the parent protein; the word gives no strength.
Molecular target: Gβ3γ9-GFP2 (Gβγ heterodimer of Gβ3 and Gγ9-GFP2) (UniProt P16520)
Assay: FRET or BRET; BRET2 (TRUPATH biosensors) in HEK 293T cells transfected 1:1:1:1 with receptor, Gα-RLuc8, Gβ3 and Gγ9-GFP2; 1x HBSS + 20 mM HEPES pH 7.4, coelenterazine 400a; ratio of GFP2 (510 nm) to RLuc8 (395 nm) emission; signal before and after 5 min of ET-3 or NT

Sequences of proteins named here, by UniProt entry; tags and fusion partners are left off. A change or cut given only in a name is not applied to a line headed by its entry.
UniProt P16520: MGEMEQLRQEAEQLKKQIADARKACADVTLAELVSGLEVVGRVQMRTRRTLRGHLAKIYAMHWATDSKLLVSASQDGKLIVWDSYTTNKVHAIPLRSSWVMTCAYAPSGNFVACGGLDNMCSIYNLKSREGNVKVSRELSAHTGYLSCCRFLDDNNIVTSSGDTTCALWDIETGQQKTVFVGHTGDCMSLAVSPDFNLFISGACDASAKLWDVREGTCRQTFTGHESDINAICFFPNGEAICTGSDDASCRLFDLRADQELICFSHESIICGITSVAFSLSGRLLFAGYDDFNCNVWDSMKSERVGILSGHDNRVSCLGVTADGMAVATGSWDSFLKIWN
UniProt Q14344: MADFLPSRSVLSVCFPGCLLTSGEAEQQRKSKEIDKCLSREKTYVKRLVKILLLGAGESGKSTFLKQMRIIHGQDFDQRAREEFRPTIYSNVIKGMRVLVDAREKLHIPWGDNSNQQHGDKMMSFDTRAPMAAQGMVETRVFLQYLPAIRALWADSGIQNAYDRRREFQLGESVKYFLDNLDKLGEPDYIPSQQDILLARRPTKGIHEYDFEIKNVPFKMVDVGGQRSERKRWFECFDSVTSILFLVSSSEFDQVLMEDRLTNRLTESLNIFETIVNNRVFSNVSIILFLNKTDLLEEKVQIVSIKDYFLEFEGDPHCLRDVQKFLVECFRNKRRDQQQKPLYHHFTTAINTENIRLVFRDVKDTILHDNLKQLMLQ
UniProt Q03113: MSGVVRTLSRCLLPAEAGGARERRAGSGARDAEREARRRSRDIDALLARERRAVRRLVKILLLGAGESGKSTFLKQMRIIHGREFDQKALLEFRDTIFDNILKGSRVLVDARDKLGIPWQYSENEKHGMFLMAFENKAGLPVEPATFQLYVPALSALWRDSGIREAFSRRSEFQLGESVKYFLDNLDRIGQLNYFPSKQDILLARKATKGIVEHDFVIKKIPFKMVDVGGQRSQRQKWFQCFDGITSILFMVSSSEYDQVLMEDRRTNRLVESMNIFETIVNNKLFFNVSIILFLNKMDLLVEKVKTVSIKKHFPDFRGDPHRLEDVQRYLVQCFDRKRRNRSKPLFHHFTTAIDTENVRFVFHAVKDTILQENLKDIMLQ

binding	Substance
binds	Gα13(126)-RLuc8 (from UniProt Q14344 1-377)
binds	Gα12(134)-RLuc8 (from UniProt Q03113 1-381)

From PMC11251043
